Results: PubChem BioAssay AID248 (DTP/NCI, 2004)
The list does not hold the whole screen: it is rich in T/C values a quarter to a half above the control, in often repeated tests (any T/C) and in doses without a T/C. Other doses and runs of a compound stand elsewhere. T/C: endpoint of the treated group in % of that of the vehicle group. Some doses have a count of surviving animals in place of a T/C: the source holds a T/C of zero for them, seemingly a mark for toxic or unscored doses. Some doses without a T/C left all or most animals alive at the check, yet need not have been tolerated: survival well below the control is almost never listed, so the zero probably covers shortened survival too. Counts of survivors are from the toxicity check (mostly the fifth day) where no day follows; animals may have died later. Schedule codes are those of the source, read here as Q, the interval in days (D) or hours (H), X, the number of doses. Some doses were run more than once; their values stand side by side, smallest first. Some schedules carry Z or #; the key to these is not given. Where survival is the endpoint, this PubChem deposit counts one and a half times the control or more as active, and values a quarter to a half above the control carry no call in these data; other NCI protocols may use other cut-offs.

Tested on: L1210 leukemia ip in BDF1 mice, survival T/C
Assay: NCI In Vivo Anticancer Drug Screen. Data for tumor model L1210 Leukemia (intraperitoneal) in B6D2F1 (BDF1) mice
Conditions: T/C endpoint: mean survival time, higher T/C = longer survival
[1] = dose: 300.0 mg/kg/injection, schedule: Q01DX001 (ip), vehicle: saline
[2] = dose: 400.0 mg/kg/injection, schedule: Q01DX009 (ip), vehicle: saline with Tween-80
[3] = dose: 400.0 mg/kg/injection, schedule: Q04DX003 (ip), vehicle: saline
[4] = dose: 100.0 mg/kg/injection, schedule: Q01DX009 (ip), vehicle: saline
[5] = dose: 50.0 mg/kg/injection, schedule: Q04DX002 (ip), vehicle: saline
[6] = dose: 100.0 mg/kg/injection, schedule: Q04DX002 (ip), vehicle: saline
[7] = dose: 200.0 mg/kg/injection, schedule: Q04DX002 (ip), vehicle: saline
[8] = dose: 400.0 mg/kg/injection, schedule: Q04DX002 (ip), vehicle: saline
[9] = dose: 100.0 mg/kg/injection, schedule: Q01DX009 (ip), vehicle: saline with Tween-80
[10] = dose: 200.0 mg/kg/injection, schedule: Q01DX009 (ip), vehicle: saline with Tween-80
[11] = dose: 400.0 mg/kg/injection, schedule: Q01DX009 (ip), vehicle: Klucel (hydroxypropylcellulose) (HPC)
[12] = dose: 400.0 mg/kg/injection, schedule: Q04DX003 (ip), vehicle: saline with Tween-80
[13] = dose: 200.0 mg/kg/injection, schedule: Q04DX003 (ip), vehicle: saline with Tween-80

SMILES: CCCCCCCCCCCCCC[n+]1ccc(C#N)cc1
- survivor count (dose: 75.0 mg/kg/injection, schedule: Q01DX001 (ip), vehicle: saline): 3 of 6
- survivor count (dose: 150.0 mg/kg/injection, schedule: Q01DX001 (ip), vehicle: saline): 0 of 6
- survivor count [1]: 0 of 6

SMILES: CCOC(=O)C(Cc1ccc2ccccc2n1)C(C)=O (configuration not stated)
- survivor count (dose: 200.0 mg/kg/injection, schedule: Q01DX009 (ip), vehicle: DMSO): 1 of 3

SMILES: O=Cc1ccc(OC(=O)Nc2ccccc2)cc1
- survivor count [2]: 3 of 6

SMILES: NCc1ccc(F)cc1
- survivor count [3]: 2 of 6

SMILES: CC12OC(c3ccccc3)(C3=C1C1CCC(C1)C3(C)C)c1ccccc12 (configuration not stated)
- survivor count [4]: 6 of 6
- survivor count (dose: 200.0 mg/kg/injection, schedule: Q01DX009 (ip), vehicle: saline): 6 of 6

SMILES: NC(CCl)=NCCCCN=C(N)CCl
- survivor count (dose: 50.0 mg/kg/injection, schedule: Q01DX009 (ip), vehicle: saline): 0 of 3
- survivor count [5]: 1 of 3
- survivor count [6]: 0 of 3
- survivor count [7]: 0 of 3
- survivor count [8]: 0 of 3

SMILES: CCCCCCCCCCOB(OCCCCCCCCCC)OCCCCCCCCCC
- survivor count [9]: 0 of 6
- survivor count [10]: 0 of 6
- survivor count [2]: 0 of 6

SMILES: CC[N+](C)(CC)CCNC(=O)Nc1ccc(C)c(NC(=O)NCC[N+](C)(CC)CC)c1
- survivor count (dose: 6.25 mg/kg/injection, schedule: Q01DX009 (ip), vehicle: saline): 0 of 6
- survivor count (dose: 6.25 mg/kg/injection, schedule: Q04DX002 (ip), vehicle: saline): 1 of 3
- survivor count (dose: 12.5 mg/kg/injection, schedule: Q04DX002 (ip), vehicle: saline): 0 of 3 and 1 of 3
- survivor count (dose: 25.0 mg/kg/injection, schedule: Q04DX002 (ip), vehicle: saline): 0 of 3
- survivor count [5]: 0 of 3
- survivor count [6]: 0 of 3
- survivor count [7]: 0 of 3
- survivor count [8]: 0 of 3

SMILES: C=C(Br)CSC#N
- survivor count [9]: 4 of 6
- survivor count [10]: 0 of 6
- survivor count [2]: 0 of 6

SMILES: C(=Nc1ccc2c(c1)Cc1ccccc1-2)c1ccccc1
- survivor count [11]: 6 of 6

SMILES: O=NN(CCCl)C(=O)Nc1ccc(S(=O)(=O)F)cc1
- T/C (dose: 4.0 mg/kg/injection, schedule: Q01DX001 (ip), vehicle: carboxymethylcellulose (CMC)): 125 % of control
- T/C (dose: 8.0 mg/kg/injection, schedule: Q01DX001 (ip), vehicle: carboxymethylcellulose (CMC)): 130 % of control
- T/C (dose: 16.0 mg/kg/injection, schedule: Q01DX001 (ip), vehicle: carboxymethylcellulose (CMC)): 137 % of control
- T/C (dose: 31.0 mg/kg/injection, schedule: Q01DX001 (ip), vehicle: carboxymethylcellulose (CMC)): 131 % of control
- T/C (dose: 62.0 mg/kg/injection, schedule: Q01DX001 (ip), vehicle: carboxymethylcellulose (CMC)): 136 % of control
- T/C (dose: 125.0 mg/kg/injection, schedule: Q01DX001 (ip), vehicle: carboxymethylcellulose (CMC)): 143 % of control
- T/C (dose: 250.0 mg/kg/injection, schedule: Q01DX001 (ip), vehicle: carboxymethylcellulose (CMC)): 125 % of control

SMILES: C[N+](C)(C)c1ncncn1
- survivor count (dose: 100.0 mg/kg/injection, schedule: Q04DX003 (ip), vehicle: saline): 1 of 6
- survivor count (dose: 200.0 mg/kg/injection, schedule: Q04DX003 (ip), vehicle: saline): 0 of 6
- survivor count [3]: 0 of 6

SMILES: CN(C)c1ccc(O)c2c1CC1CC3C(N(C)C)C(=O)C(C(N)=O)=C(O)C3(O)C(=O)C1=C2O (configuration not stated)
- survivor count [12]: 0 of 6

SMILES: c1ccc(C(c2ccccc2)[Si](c2ccccc2)(C(c2ccccc2)c2ccccc2)C(c2ccccc2)c2ccccc2)cc1
- survivor count (dose: 150.0 mg/kg/injection, schedule: Q01DX009 (ip), vehicle: Klucel (hydroxypropylcellulose) (HPC)): 6 of 6

SMILES: CCC1CCCCN1CCNc1ccc(CO)c2sc3ccccc3c(=O)c12 (configuration not stated)
- survivor count [11]: 3 of 6

SMILES: C[N+](C)(C)C1(Cc2ccccc2)c2ccccc2-c2ccccc21
- survivor count [4]: 1 of 6
- survivor count [13]: 0 of 6
- survivor count [12]: 0 of 6

SMILES: COC1=NC2(C)C3C=CC(C4C(=O)N(c5ccccc5)C(=O)C43)C12C (configuration not stated)
- survivor count (dose: 75.0 mg/kg/injection, schedule: Q04DX002 (ip), vehicle: gum acacia): 0 of 3
- survivor count (dose: 150.0 mg/kg/injection, schedule: Q04DX002 (ip), vehicle: gum acacia): 0 of 3
- survivor count (dose: 300.0 mg/kg/injection, schedule: Q04DX002 (ip), vehicle: gum acacia): 0 of 3

SMILES: C[Si](C)(C)c1ccc(CCN2CC2)s1
- survivor count (dose: 100.0 mg/kg/injection, schedule: Q01DX001 (ip), vehicle: carboxymethylcellulose (CMC)): 0 of 4
- survivor count (dose: 200.0 mg/kg/injection, schedule: Q01DX001 (ip), vehicle: carboxymethylcellulose (CMC)): 0 of 4
- survivor count (dose: 400.0 mg/kg/injection, schedule: Q01DX001 (ip), vehicle: carboxymethylcellulose (CMC)): 0 of 4

SMILES: NC(=O)c1ccc[n+](CCN(CCCl)c2ccc3ccccc3c2)c1
- survivor count (dose: 100.0 mg/kg/injection, schedule: Q01DX009 (ip), vehicle: Klucel (hydroxypropylcellulose) (HPC)): 0 of 6
- survivor count (dose: 200.0 mg/kg/injection, schedule: Q01DX009 (ip), vehicle: Klucel (hydroxypropylcellulose) (HPC)): 0 of 6
- survivor count [11]: 0 of 6

SMILES: COc1ccc(C(=O)CBr)c(OC)c1
- survivor count (dose: 50.0 mg/kg/injection, schedule: Q01DX009 (ip), vehicle: saline with Tween-80): 2 of 6
- survivor count [9]: 0 of 6
- survivor count [13]: 1 of 6
- survivor count [12]: 0 of 6

SMILES: COC1OC(COC(C)=O)C(OC(C)=O)C(OC(C)=O)[CH]1[Hg][O]C(C)=O (configuration not stated)
- survivor count (dose: 100.0 mg/kg/injection, schedule: Q04DX003 (ip), vehicle: saline sonified): 0 of 6
- survivor count (dose: 200.0 mg/kg/injection, schedule: Q04DX003 (ip), vehicle: saline sonified): 0 of 6
- survivor count (dose: 400.0 mg/kg/injection, schedule: Q04DX003 (ip), vehicle: saline sonified): 0 of 6

SMILES: CC(=[N-])CC(C)=O.O=C(CC(=Nc1ccccc1)c1ccccc1)c1ccccc1.[Cu+]
- survivor count (dose: 100.0 mg/kg/injection, schedule: Q04DX003 (ip), vehicle: saline with Tween-80): 6 of 6
- survivor count [13]: 2 of 6
- survivor count [12]: 0 of 6

SMILES: Cc1cc(C(C)(C)C)c(Oc2ccc([N+](=O)[O-])cc2S(=O)(=O)O)c(C(C)(C)C)c1
- survivor count [10]: 6 of 6

SMILES: ClCCCNCCCCl
- survivor count [1]: 2 of 6

SMILES: CC(=O)Nc1ccc(S(=O)(=O)Cl)cc1
- survivor count (dose: 300.0 mg/kg/injection, schedule: Q01DX001 (ip), vehicle: other): 1 of 6

SMILES: Cc1cc(-c2ccc(NC(=O)Nc3cccc(C4=NCCN4)c3)c(C)c2)ccc1NC(=O)Nc1cccc(C2=NCCN2)c1
- survivor count (dose: 250.0 mg/kg/injection, schedule: Q01DX Z (ip), vehicle: methylcellulose (MC)): 0 of 6
